Measured values from US20170165259A1, “COMBINED MODULATION OF IRE1” (THE REGENTS OF THE UNIVERSITY OF CALIFORNIA, priority 2014, published 2017).
Entries after “also recorded” stand apart in the source; their conditions may differ. For at least one compound, name, drawing or mass did not settle the structure.

Protein sequences, listed by entry. Tags and fused reporters are not part of them. Residues count along the entry.
UniProt O75460, 469-977: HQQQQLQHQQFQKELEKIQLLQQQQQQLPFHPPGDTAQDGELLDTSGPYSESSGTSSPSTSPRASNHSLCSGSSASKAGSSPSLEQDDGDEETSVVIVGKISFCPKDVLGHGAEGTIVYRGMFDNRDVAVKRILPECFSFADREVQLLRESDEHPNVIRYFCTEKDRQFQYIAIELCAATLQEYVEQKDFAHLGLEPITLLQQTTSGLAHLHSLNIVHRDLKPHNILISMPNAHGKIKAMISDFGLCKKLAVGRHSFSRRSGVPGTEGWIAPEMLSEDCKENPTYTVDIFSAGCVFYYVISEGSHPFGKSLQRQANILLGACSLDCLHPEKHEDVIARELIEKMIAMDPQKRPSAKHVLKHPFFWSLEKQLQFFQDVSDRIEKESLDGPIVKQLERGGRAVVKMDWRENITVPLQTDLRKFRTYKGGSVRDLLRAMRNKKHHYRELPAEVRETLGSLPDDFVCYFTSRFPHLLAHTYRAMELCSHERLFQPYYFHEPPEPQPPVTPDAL

Experiments:
[1] = system: panel of kinases (Src, Abl); experiment: Counter-screen against a panel of kinases; format: biochemical; settings: 12 kinases in this panel
adult rats = experiment: Tm-induced acute photoreceptor loss, intravitreal co-injection; format: in vivo; settings: intravitreal co-injection with Tm
Description: […]. […] Rhodopsin mRNA may be an IRE1α RNase substrate since Rhodopsin RNA is cleaved by IRE1α*, but not RNase-dead IRE1α* (N906A), at a primary G/C site with flanking sequence similarity to scission sites in XBP1.
Next, to test whether KIRA6 also provides functional protection, we established a dose-response curve to determine threshold [Tm] that cause functional retinal damage as measured by scotopic electroretinograms (ERG). Based on the results, we injected Tm at 3 μg/ml.
Mice were anaesthetized with 1.5-3% isoflurane, eyes were dilated with 2.5% phenylephrine hydrochloride and 1% tropicamide, and corneas were kept moist with regular application of 2.5% methylcellulose. Eyes were examined using a Micron III retinal imaging system (Phoenix Research Labs). Spectral domain OCT images were acquired with a Micron Image Guided OCT System (Phoenix Research Labs) by averaging 10 to 50 scans.
Rats dark-adapted overnight were anesthetized with ketamine (100 mg/ml) and xylazine (20 mg/ml) via intraperitoneal injection in dim red light. Pupils were dilated with 2.5% phenylephrine hydrochloride and 1.0% tropicamide, and corneas were anesthetized with 0.5% proparacaine. Scotopic ERG recordings were performed as previously described^4. Briefly, 10-sec flashes of white light of increasing intensities were used to induce bilateral, full-field ERGs; responses were recorded using contact lens electrodes with a UTAS-E 3000 Visual Electrodiagnostic System (LKC Technologies, Inc.). Electroretinography (ERG) Rats dark-adapted overnight were anesthetized with ketamine (100 mg/ml) and xylazine (20 mg/ml) via intraperitoneal injection in dim red light. Pupils were dilated with 2.5% phenylephrine hydrochloride and 1.0% tropicamide, and corneas were anesthetized with 0.5% proparacaine. Scotopic ERG recordings were performed as previously described^4. Briefly, 10-μsec flashes of white light of increasing intensities were used to induce bilateral, full-field ERGs; responses were recorded using contact lens electrodes with a UTAS-E 3000 Visual Electrodiagnostic System (LKC Technologies, Inc.).

IRE1α* = biological target: T1, IRE1α* (Homo sapiens, UniProt O75460); experiment: Cleavage of radio-labeled RNAs (Ins2, miR17, rhodopsin) by IRE1α*; format: biochemical
T1 construct: human IRE1α (residues 469-977, IRE1α*); made in house; host or cells: SF9 insect cells, Bac-to-Bac baculovirus

INS-1 cells [2] = experiment: Annexin V apoptosis of INS-1 cells under ER stress; format: cell-based, rat
Description: FIGS. 19A-19D. KIRA6 inhibits Terminal UPR outputs of IRE1α to protect against ER stress-induced apoptosis. […] (FIG. 19B) Q-PCR for Ins1 mRNA in INS-1 IRE1α (WT) cells treated with Dox (5 ng/ml)−/+STF-083010 (50 M) over the indicated timecourse. (FIG. 19C) Annexin V staining of INS-1 cells after 72 hr with indicated [Tm]−/+STF-083010 (50 M). (FIG. 19D) Annexin V staining of INS-1 cells after 72 hr with Tm (0.2 μg/ml), STF-083010 (1 or 5 M), and KIRA6 (0.05 M) as indicated. Data plotted as mean+/−SD. P-values: *<0.05, **<0.01, ***<0.005.
For assaying apoptosis by Annexin V staining, cells were plated in 12-well plates overnight. Cells were then treated with various reagents for indicated time periods. On the day of flow cytometry analysis, cells were trypsinized and washed in PBS and resuspended in Annexin V binding buffer with Annexin-V FITC (BD Pharmingen™). Flow cytometry was performed on a Becton Dickinson LSRII flow cytometer.

sfGFP-IRE1α = biological target: T2, sfGFP-IRE1α (Mus musculus, UniProt Q9EQY0); experiment: sfGFP-IRE1α foci formation in INS-1 cells under DTT; format: cell-based
T2 construct: expressed in transfected cells

PERK = biological target: T3, PERK (Rattus norvegicus, UniProt Q9Z1Z1); experiment: eIF2α phosphorylation by PERK; format: cell-based
T3 construct: endogenous in cells
T3 sequence (Q9Z1Z1 28-1108): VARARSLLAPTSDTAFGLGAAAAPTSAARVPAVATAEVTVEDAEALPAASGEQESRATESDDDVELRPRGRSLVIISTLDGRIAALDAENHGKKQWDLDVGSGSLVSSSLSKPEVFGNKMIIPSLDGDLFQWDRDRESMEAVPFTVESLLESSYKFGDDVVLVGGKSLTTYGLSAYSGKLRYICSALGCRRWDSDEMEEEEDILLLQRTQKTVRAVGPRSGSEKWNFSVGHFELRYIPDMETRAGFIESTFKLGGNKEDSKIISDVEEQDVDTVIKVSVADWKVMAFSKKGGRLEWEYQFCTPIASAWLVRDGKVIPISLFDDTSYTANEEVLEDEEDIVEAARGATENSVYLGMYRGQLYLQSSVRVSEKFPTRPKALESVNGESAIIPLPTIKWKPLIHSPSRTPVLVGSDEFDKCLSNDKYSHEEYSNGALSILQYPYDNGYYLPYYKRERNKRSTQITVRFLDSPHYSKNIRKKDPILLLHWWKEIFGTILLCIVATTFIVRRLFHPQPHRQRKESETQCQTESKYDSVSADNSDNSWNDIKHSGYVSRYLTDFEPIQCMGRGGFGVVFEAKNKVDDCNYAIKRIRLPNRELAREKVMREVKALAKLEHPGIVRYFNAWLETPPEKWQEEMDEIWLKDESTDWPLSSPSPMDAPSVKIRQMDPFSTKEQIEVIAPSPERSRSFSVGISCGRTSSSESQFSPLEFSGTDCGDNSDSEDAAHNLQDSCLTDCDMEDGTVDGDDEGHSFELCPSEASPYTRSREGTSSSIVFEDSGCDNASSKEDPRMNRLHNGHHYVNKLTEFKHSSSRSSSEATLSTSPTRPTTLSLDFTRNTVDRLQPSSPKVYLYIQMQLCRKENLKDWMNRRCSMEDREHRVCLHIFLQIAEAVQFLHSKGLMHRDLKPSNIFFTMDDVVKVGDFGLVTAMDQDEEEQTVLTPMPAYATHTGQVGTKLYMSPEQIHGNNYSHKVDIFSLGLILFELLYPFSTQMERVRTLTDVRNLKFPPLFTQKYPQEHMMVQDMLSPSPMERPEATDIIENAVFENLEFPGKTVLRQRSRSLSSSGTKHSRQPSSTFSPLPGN

human islets = experiment: TUNEL staining of human islets under Tm; format: cell-based
INS-1 cells [3] = experiment: Q-PCR of Ins1/Ins2 mRNA decay in INS-1 cells under ER stress; format: cell-based, rat

## CC(C)(C)c1nc(-c2ccc(NC(=O)Nc3cccc(C(F)(F)F)c3)c3ccccc23)c2c(N)nccn12 [KIRA6, 1-(4-(8-amino-3-tert-butylimidazo[1,5-a]pyrazin-1-yl)naphthalen-1-yl)-3-(3-(trifluoromethyl)phenyl)urea]
[1]
  off-target inhibition in kinase panel: the only off-target inhibition observed is for the tyrosine kinases Src and Abl
Adult rats
  decay of Rhodopsin mRNA: significantly reduces
  photoreceptor loss (OCT and histology): reduces photoreceptor loss
  retinal TXNIP induction: significantly reduces
  retinal XBP1 splicing: significantly reduces
IRE1α*
  IRE1α* (WT) cleavage of pre-miR-17: dose-dependently inhibits IRE1α* (WT) cleavage of pre-miR-17
  Ins2 RNA cleavage by IRE1α* (WT): dose-dependently inhibits
  Rhodopsin RNA cleavage by IRE1α*: inhibits Rhodopsin RNA cleavage by IRE1α* in dose-dependent manner
INS-1 cells [2]; STF-083010 1 M or KIRA6 50 nM alone
  cytoprotection under Tm, single agent at the dose of the combination: sub-therapeutic individually
INS-1 cells [2]; under BFA
  apoptosis of INS-1 cells: Inhibits apoptosis of INS-1 cells under BFA in dose-dependent manner
sfGFP-IRE1α
  sfGFP-IRE1α foci formation: prevents foci formation by DTT
PERK
  eIF2α phosphorylation by PERK: does not inhibit nor secondarily promote eIF2α phosphorylation by PERK
Human islets
  TUNEL staining of β-cells, human islets: Reduces TUNEL staining of β-cells
INS-1 cells [3]; ER stress (Tm)
  ER-localized decay of Ins1 / Ins2 mRNA in INS-1 cells: inhibits ER-localized endonucleolytic decay of Ins1 mRNA at lower doses of the drug than needed to inhibit XBP1 mRNA splicing; also recorded: Inhibits Ins1 and Ins2 mRNA decay by Tm in INS-1 cells in dose-dependent manner
INS-1 cells [3]; INS-1 cells, Tm, 20 nM KIRA6
  Ins2 mRNA levels: recover even at 20 nM KIRA6 and exceed basal, untreated levels
